This test deals with VP16-Arnt. Kind of test: mammalian two-hybrid assay in COS7 cells, GAL4-driven luciferase reporter.

Binding data for 1 molecule are collected here from patent US20020165140A1.

No constants are given. Whether binding was seen depends on the method and setting.

B1: GAL4-IPAS (protein, not shown: large carriers)
chain: MALGLQRVRSNTELRKEKSRDAARSRRSQETEVLYQLAHTLPFARGVSAHLDKASIMRLTISYLRMHRLCAAGGKRGRATGRLLPEGPGGFRHGTHRRGRHGLPVGKCQQAPGPQSVDLCSSSLIHNPTPGTNFSLELIGHSIFDFIHPCDQEELQDALTPRPNLSKKKLEAPTERHFSLRMKSTLTSRGRTLNLKAATWKVLHCSGHMRAYKPPAQTSPAGSPRSEPPLQCLVLICEAIPQLPFHDGATLGLPQEKTPISTLFTPLWKALLCLVKRWPVQVLQGKGTESSLPSWVLWALNRKNCPG
For B1, the binding result was “no binding”.
